Results on one substance are retold here after article PMC10360934.

Protein sequences, listed by entry. Tags and fused reporters are not part of them. Lines headed by an entry give the natural chain unless they say otherwise; changes in a name come on top.
UniProt Q9Z7M7: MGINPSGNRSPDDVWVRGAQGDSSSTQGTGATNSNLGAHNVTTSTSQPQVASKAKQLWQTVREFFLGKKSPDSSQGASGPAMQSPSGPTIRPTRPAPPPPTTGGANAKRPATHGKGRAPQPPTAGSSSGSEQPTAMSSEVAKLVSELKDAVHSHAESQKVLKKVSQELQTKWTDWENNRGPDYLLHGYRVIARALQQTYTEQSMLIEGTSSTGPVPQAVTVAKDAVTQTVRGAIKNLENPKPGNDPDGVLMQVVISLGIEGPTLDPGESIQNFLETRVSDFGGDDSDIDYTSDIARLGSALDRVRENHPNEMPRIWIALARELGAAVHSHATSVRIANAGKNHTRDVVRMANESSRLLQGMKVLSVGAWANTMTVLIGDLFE
UniProt O00401: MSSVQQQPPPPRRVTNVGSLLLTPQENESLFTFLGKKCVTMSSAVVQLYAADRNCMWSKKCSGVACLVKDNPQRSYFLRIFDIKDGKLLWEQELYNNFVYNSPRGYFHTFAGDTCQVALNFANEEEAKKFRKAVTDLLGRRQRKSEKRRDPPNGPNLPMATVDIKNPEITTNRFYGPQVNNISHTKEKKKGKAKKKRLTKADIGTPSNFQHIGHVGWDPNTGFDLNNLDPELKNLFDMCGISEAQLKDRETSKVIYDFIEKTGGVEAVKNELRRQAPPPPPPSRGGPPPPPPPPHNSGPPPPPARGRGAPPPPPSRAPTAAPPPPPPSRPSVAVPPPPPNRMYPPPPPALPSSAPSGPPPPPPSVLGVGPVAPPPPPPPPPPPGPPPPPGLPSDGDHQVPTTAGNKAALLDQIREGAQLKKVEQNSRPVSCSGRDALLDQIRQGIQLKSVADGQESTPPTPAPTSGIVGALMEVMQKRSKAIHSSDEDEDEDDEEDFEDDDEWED

Results are given in words; binding and its absence hold for the method and conditions named. Binding seen in cells or lysates may run through a third protein. Binding calls can cover weak binding; strength is not graded here.

The target in the experiment is Flag-tagged C. pneumoniae Cpn0677 (Cpn0677-FT) (C. pneumoniae) (UniProt Q9Z7M7). Kind of experiment: co-IP; Flag-tagged chlamydial protein transiently expressed in HeLa for 24 hrs; lysis in NP40 buffer (50 mM Tris pH7.5, 150 mM NaCl, 1 mM EDTA, 0.5% NP-40); Anti-Flag M2 Affinity gel overnight at 4°C; eluted with 3X Flag peptide; immunoblot for endogenous N-WASP and ARPC1.

As to “Neural-Wiskott Aldrich Syndrome Protein (N-WASP) (from UniProt O00401 1-505)”, the binding result was “binds”.
